# Results taken from the supplement of paper PMC12067093, “Discovery and optimisation of a covalent ligand for TRIM25 and its application to targeted protein ubiquitination” (Chemical Science, 2025).
# Amino acid sequences for entries named in this document (tags omitted). A change or cut given only in a name is not applied to a line headed by its entry.
# UniProt Q15061: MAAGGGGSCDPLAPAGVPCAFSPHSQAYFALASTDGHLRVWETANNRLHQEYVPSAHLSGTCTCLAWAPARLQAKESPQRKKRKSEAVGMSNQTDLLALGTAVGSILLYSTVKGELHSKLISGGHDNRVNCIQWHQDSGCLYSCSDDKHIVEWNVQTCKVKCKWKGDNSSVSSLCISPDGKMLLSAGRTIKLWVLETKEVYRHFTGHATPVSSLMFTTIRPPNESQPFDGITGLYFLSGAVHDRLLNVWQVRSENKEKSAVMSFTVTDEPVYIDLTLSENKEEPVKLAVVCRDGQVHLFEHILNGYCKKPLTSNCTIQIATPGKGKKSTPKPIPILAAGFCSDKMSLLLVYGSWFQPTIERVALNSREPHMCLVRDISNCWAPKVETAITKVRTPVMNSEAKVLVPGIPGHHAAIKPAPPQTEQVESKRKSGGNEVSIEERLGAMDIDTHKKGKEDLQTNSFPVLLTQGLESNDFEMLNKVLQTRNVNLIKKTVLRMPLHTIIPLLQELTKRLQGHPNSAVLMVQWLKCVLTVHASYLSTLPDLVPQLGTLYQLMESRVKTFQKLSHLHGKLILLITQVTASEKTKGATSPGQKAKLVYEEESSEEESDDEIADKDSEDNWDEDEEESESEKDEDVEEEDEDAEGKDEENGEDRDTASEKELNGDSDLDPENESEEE
# UniProt Q9NNW5: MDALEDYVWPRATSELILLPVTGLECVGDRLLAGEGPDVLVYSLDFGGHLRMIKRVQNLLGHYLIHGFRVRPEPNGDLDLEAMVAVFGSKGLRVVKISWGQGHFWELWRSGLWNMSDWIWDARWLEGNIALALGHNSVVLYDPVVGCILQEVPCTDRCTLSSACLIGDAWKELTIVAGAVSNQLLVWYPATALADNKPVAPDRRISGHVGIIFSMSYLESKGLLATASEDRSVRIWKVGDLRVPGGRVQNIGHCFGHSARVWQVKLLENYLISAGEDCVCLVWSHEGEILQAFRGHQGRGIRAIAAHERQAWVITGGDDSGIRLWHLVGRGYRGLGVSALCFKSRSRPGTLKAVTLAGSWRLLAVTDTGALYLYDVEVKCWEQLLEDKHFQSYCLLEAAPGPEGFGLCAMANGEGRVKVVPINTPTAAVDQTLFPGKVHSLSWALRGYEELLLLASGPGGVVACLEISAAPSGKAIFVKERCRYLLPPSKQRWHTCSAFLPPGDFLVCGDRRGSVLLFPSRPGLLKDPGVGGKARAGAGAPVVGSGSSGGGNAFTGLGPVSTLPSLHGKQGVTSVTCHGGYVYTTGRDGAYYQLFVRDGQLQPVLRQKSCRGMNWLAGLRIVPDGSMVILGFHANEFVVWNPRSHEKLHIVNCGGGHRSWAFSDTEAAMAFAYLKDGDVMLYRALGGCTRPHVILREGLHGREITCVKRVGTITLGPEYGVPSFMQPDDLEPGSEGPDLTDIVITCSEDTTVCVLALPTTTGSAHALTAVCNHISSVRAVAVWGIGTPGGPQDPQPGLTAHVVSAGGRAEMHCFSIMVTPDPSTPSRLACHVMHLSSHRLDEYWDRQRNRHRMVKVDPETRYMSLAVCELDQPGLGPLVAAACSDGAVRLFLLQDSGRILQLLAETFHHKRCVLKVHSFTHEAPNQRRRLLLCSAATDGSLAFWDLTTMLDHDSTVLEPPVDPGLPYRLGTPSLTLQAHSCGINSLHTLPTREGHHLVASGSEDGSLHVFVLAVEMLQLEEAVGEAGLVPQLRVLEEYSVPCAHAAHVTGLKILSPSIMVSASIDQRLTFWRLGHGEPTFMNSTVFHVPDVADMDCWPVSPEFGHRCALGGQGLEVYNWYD
# This is one part of the list.
# Key:
# [1] = target: WDR43_Q15061_158_HIVEWNVQTCK (UniProt Q15061); test: probe-labelled cysteine peptide fold change vs DMSO (competition) (log2 fold change); higher = less target engagement (more negative = stronger competition); conditions: THP-1, incubation time: 4 h
# [2] = target: WDR6_Q9NNW5_653_LHIVNCGGGHR (UniProt Q9NNW5); test: as above; conditions: THP-1, incubation time: 4 h
# 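Note: competitive chemoproteomic profiling in live THP-1 cells with an iodoacetamide desthiobiotin (IA-DTB) probe, comparing probe-labelled peptide intensities in compound-treated cells against DMSO-treated controls.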
compound,measurement,setting,value
CC1Cc2ccccc2N1C(=O)C1CCCN(C(=O)CCl)C1 (mixture of isomers) [TRIM25 ligand 11 (diastereomer mixture)],probe-labelled cysteine peptide fold change,[1]; 10 µM,0.0869
same,probe-labelled cysteine peptide fold change,[1]; 50 µM,0.135
same,probe-labelled cysteine peptide fold change,[2]; 10 µM,-0.043
same,probe-labelled cysteine peptide fold change,[2]; 50 µM,0.18
